Laboratory results taken from the supplement of paper PMC10849652.
The list shows a part of the results.

The chains behind the UniProt entries cited, without tags or fusion partners. Where a name states a change or a piece, a line headed by the entry shows the natural chain unless it says otherwise.
UniProt Q9C073: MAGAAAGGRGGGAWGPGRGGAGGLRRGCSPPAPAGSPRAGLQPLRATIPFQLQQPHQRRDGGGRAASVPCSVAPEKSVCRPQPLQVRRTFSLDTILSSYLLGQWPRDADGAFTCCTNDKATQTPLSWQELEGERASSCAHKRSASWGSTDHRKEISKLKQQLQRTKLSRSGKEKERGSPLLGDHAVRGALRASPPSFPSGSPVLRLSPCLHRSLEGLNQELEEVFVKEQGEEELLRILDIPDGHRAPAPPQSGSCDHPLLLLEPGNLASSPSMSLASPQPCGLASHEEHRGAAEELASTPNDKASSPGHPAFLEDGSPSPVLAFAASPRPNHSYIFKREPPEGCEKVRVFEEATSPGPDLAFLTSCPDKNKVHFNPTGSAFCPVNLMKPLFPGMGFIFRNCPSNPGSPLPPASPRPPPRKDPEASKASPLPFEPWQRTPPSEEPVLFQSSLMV
UniProt Q93063: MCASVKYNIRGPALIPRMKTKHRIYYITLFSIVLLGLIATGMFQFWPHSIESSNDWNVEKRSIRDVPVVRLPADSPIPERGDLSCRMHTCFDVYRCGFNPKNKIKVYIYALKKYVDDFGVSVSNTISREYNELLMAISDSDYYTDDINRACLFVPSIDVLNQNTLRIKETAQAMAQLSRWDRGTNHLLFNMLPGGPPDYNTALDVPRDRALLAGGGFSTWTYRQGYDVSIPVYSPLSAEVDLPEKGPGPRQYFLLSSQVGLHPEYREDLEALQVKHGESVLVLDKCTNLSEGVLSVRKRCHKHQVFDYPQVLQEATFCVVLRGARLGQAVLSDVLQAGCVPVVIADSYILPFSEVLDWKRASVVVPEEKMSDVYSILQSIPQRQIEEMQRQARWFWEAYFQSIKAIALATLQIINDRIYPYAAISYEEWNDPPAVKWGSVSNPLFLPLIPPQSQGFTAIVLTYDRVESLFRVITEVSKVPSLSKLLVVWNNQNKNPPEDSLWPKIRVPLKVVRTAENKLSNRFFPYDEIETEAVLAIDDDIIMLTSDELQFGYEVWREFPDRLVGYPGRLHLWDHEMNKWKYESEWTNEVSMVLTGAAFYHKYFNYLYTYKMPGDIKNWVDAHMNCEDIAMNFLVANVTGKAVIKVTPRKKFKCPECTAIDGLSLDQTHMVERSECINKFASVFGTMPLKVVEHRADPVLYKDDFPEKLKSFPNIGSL
UniProt Q9BPY3: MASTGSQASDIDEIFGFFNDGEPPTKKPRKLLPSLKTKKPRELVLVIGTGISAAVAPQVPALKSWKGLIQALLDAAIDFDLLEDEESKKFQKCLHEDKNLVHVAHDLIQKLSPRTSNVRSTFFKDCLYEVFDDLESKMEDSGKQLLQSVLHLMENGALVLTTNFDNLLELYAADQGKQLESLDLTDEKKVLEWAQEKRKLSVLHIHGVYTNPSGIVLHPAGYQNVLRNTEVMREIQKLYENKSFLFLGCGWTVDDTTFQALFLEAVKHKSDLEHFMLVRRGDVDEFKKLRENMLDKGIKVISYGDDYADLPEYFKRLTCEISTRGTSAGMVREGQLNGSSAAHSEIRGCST
UniProt P38117: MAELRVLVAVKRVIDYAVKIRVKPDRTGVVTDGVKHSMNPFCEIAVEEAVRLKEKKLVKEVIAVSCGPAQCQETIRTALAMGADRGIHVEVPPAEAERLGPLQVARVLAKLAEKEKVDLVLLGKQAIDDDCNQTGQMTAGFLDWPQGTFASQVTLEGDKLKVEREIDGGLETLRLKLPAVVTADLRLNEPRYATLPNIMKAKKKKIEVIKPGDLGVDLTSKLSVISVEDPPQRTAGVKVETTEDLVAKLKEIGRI
UniProt Q9NRY5: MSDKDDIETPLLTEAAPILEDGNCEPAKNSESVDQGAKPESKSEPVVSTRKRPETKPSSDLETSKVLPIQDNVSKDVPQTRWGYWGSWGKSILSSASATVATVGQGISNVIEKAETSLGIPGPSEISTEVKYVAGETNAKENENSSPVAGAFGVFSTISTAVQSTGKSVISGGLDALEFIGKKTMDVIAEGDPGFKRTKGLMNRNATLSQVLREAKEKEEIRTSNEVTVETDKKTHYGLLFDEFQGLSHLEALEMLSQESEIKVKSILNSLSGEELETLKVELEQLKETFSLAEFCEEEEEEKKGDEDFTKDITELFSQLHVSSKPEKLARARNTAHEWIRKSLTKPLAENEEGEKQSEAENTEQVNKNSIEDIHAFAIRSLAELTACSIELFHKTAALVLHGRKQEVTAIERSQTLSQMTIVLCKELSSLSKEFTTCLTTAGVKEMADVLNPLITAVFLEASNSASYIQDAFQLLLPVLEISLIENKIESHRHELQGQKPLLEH
UniProt Q9BSJ8: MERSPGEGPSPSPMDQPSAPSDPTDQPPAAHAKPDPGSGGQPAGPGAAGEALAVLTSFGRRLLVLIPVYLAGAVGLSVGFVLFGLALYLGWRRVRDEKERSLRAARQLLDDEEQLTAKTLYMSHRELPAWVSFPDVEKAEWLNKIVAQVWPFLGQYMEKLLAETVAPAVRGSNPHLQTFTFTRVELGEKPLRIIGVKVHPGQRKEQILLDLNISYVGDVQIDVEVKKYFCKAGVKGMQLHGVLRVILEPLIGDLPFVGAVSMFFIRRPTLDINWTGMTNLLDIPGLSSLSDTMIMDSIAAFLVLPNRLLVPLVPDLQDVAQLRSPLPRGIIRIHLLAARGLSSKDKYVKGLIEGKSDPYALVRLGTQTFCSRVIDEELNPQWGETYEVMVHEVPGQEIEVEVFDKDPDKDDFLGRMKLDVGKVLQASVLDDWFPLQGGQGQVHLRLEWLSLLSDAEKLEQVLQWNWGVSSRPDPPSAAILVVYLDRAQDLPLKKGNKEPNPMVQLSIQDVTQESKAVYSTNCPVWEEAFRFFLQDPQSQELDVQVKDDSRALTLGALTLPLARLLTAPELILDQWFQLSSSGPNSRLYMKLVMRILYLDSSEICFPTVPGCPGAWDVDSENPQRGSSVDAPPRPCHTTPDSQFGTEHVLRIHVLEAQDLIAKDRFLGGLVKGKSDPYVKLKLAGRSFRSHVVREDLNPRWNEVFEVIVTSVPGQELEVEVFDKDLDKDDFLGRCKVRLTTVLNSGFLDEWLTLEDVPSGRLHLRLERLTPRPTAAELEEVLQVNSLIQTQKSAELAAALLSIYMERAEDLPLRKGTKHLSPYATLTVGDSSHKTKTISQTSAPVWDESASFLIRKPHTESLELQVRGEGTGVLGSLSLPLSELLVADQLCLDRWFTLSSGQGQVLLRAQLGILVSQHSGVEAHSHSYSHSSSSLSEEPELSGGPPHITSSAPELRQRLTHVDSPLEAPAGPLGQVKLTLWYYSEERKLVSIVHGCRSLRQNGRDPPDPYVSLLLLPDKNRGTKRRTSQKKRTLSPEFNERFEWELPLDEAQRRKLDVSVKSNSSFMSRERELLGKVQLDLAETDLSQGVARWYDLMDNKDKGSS
UniProt Q7Z2K6: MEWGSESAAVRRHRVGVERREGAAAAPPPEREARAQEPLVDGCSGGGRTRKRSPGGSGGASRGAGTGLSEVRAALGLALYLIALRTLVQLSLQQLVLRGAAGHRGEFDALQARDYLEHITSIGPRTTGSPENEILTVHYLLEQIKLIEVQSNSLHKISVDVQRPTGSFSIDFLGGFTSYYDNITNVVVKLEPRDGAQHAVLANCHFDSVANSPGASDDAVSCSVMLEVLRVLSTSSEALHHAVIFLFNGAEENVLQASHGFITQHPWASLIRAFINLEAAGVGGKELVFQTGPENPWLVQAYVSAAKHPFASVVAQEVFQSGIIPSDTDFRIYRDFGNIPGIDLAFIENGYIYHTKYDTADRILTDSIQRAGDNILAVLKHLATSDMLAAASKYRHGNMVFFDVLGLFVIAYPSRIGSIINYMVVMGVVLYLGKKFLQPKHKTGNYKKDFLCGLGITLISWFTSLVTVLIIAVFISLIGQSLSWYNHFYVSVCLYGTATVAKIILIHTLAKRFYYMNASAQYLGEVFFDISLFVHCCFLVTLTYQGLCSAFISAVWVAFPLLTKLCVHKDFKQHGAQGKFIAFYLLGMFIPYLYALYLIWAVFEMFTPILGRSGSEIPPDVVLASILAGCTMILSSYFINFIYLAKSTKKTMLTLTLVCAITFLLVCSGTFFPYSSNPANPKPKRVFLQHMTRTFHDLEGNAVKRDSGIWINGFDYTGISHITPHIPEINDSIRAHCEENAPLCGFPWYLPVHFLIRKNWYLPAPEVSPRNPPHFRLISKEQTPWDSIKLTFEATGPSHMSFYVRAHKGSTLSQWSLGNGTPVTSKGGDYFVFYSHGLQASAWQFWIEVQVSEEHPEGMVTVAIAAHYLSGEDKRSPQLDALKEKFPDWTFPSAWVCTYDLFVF
UniProt Q5RKV6, whole entry, looked up: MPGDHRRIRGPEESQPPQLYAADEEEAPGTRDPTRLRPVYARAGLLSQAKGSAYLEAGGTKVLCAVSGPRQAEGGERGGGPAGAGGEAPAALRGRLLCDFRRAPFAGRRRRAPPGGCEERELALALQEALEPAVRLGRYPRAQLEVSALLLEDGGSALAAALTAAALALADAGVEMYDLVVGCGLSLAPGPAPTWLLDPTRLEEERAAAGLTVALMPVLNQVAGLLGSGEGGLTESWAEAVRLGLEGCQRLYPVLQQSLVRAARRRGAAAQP
UniProt Q9NZB2: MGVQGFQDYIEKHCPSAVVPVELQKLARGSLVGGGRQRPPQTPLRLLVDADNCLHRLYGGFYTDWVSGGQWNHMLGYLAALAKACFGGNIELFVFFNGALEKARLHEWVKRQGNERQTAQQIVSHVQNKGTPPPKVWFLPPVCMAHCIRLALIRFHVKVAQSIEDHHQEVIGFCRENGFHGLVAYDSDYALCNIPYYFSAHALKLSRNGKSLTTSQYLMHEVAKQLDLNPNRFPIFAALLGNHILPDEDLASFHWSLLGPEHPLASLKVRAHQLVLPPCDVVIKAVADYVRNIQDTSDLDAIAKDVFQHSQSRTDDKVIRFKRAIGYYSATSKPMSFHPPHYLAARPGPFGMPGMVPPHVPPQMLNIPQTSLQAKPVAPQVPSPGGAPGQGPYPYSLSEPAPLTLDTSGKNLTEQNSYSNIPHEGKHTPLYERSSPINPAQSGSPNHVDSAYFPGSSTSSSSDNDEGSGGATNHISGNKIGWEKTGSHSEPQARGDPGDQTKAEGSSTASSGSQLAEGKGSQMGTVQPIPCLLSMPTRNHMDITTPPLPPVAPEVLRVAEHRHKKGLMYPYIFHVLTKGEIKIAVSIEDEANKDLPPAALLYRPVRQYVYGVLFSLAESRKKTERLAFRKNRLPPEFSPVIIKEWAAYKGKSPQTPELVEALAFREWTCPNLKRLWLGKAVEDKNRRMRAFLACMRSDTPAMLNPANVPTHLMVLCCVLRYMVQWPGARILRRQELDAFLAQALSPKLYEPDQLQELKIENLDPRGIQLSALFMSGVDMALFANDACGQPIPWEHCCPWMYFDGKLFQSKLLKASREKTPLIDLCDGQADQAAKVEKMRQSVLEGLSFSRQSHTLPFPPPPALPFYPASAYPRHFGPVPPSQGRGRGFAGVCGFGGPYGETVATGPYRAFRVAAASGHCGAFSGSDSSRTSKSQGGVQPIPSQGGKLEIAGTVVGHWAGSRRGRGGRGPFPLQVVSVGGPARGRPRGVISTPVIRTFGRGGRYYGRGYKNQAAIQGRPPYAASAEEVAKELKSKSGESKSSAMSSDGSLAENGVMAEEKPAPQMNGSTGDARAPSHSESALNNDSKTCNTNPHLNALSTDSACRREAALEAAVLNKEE
UniProt Q92520: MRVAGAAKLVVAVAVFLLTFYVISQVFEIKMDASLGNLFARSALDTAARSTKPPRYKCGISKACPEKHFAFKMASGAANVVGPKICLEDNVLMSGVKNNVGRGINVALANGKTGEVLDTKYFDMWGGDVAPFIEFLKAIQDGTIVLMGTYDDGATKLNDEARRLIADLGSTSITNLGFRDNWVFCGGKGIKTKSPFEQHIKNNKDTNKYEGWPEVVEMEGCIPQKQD
UniProt Q8IXS8: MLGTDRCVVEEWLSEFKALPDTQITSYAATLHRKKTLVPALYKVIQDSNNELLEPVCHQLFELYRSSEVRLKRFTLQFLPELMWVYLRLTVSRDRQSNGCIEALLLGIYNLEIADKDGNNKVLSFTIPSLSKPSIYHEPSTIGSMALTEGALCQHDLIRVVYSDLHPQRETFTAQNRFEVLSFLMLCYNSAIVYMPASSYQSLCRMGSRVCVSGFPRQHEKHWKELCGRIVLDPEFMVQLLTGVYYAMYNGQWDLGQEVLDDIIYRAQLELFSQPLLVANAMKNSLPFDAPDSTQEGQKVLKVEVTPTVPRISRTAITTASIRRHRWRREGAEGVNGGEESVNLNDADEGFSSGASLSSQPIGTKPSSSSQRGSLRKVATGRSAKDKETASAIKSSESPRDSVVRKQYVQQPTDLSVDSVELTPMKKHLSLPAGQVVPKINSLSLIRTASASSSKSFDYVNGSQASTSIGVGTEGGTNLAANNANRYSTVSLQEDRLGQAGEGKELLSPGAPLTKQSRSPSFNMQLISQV
UniProt Q9H098: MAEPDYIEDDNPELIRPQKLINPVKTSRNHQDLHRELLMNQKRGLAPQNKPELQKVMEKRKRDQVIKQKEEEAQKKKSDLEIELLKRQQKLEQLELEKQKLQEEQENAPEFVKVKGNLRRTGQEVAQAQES

Columns and labels:
Assay in all cases: log2 fold change, soluble protein after heating vs DMSO (PISA); higher = thermal stabilisation; K562 lysate, 10 uM; active = over 0.2 and 3.5 SD of the protein, either way, in both replicates (recomputed)
[1] = compound: CCCS(=O)(=O)Nc1ccc(F)c(C(=O)c2c[nH]c3ncc(-c4ccc(Cl)cc4)cc23)c1F [vemurafenib]
Method in brief: (§1)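 Following dounce homogenisation of K562 pellets in PBS pH 7.4 with 1 mM MgCl2, crude extract at 1 mg/mL protein was incubated for 30 min with 10 μM compound. Aliquots were then heated for 3 min over 48°C-58°C and pooled, NP-40 was added to 0.5% at 4°C, and soluble protein was recovered as the supernatant at 21,000xg for 90 min. Channel-sum-equalised TMTpro 16plex LC-MS/MS quantified this protein. Each value, from duplicates, is a log-two fold change in thermal stability relative to solvent controls.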

[2] = compound: CCCS(=O)(=O)Nc1ccc(F)c(C(=O)c2c[nH]c3ncc(Cl)cc23)c1F
Method in brief: as §1

[3] = compound: CCN(CCCOc1ccc2c(Nc3cc(CC(=O)Nc4cccc(F)c4)[nH]n3)ncnc2c1)CCOP(=O)(O)O [barasertib]
Method in brief: as §1

[4] = compound: CC[C@@H]1C(=O)N(C)c2cnc(Nc3ccc(C(=O)NC4CCN(C)CC4)cc3OC)nc2N1C1CCCC1
Method in brief: as §1

[5] = compound: CC[C@@H]1C(=O)N(C)c2cnc(Nc3ccc(C(=O)N[C@H]4CC[C@H](N5CCN(CC6CC6)CC5)CC4)cc3OC)nc2N1C(C)C [volasertib]
Method in brief: as §1

[6] = compound: CCn1c(C(=O)N(C2CC2)C2CC2)cc2c3c(ncn3C)c(Nc3cc(C)n(C)n3)nc21
Method in brief: as §1

[7] = compound: CCn1cc(-c2ccnc3[nH]c(-c4cccc(CN(C)C)c4)cc23)c(-c2ccc(NC(=O)N(C)C)cc2)n1
Method in brief: as §1

[8] = compound: CN1CCC(CNc2ccc3ncc(-c4cccc(OC(F)(F)F)c4)n3n2)CC1
Method in brief: as §1

[9] = compound: CN1CCN(CCOc2cc(OC3CCOCC3)c3c(Nc4c(Cl)ccc5c4OCO5)ncnc3c2)CC1 [saracatinib]
Method in brief: as §1

[10] = compound: CN1CCN(c2nc(C3=C(c4c[nH]c5ccccc45)C(=O)NC3=O)c3ccccc3n2)CC1 [sotrastaurin]
Method in brief: as §1

Measured: log2 fold change

FAH (UniProt P16930)
inactive: [1] -0.036 | [2] 0.005 | [3] -0.038 | [4] 0.023 | [5] 0.032 | [6] -0.016 | [7] -0.177 | [8] 0.157 | [9] -0.007 | [10] -0.024

EXOSC2 (UniProt Q13868)
inactive: [1] 0.021 | [2] 0.009 | [3] 0.01 | [4] 0.014 | [5] 0.013 | [6] -0.027 | [7] -0.052 | [8] 0.046 | [9] 0.029 | [10] 0.03

FAM120B (UniProt Q96EK7)
inactive: [1] 0.001 | [2] 0.045 | [3] -0.009 | [4] 0.01 | [5] -0.029 | [6] 0.033 | [7] -0.011 | [8] -0.085 | [9] 0.005 | [10] 0.008

FAF1 (UniProt Q9UNN5)
inactive: [1] -0.006 | [2] 0.014 | [3] -0.001 | [4] 0.013 | [5] 0.011 | [6] 0.003 | [7] 0.002 | [8] 0.013 | [9] -0.006 | [10] 0.024

FAM117A (UniProt Q9C073)
inactive: [1] -0.048 | [2] 0.003 | [3] -0.103 | [4] 0.088 | [5] -0.007 | [6] -0.002 | [7] 0.073 | [8] -0.038 | [9] 0.011 | [10] -0.037

EXOC5 (UniProt O00471)
inactive: [1] 0.033 | [2] 0.03 | [3] 0.044 | [4] -0.036 | [5] -0.081 | [6] 0.02 | [7] 0.068 | [8] -0.115 | [9] 0.044 | [10] 0.022

ETHE1 (UniProt O95571)
inactive: [1] -0.018 | [2] 0.022 | [3] 0.076 | [4] -0.013 | [5] -0.017 | [6] -0.007 | [7] 0.044 | [8] 0.003 | [9] 0.001 | [10] -0.004

EXT2 isoform 3 (UniProt Q93063)
inactive: [1] 0.062 | [2] 0.081 | [3] -0.052 | [4] 0 | [5] -0.09 | [6] -0.006 | [7] -0.056 | [8] -0.019 | [9] 0.141 | [10] -0.016

FAM118B (UniProt Q9BPY3)
inactive: [1] -0.06 | [2] 0.03 | [3] 0.004 | [4] -0.014 | [5] 0.001 | [6] 0.022 | [7] -0.03 | [8] -0.027 | [9] 0.004 | [10] 0.048

ETFA (UniProt P13804)
inactive: [1] -0.001 | [2] -0.015 | [3] 0.014 | [4] -0.055 | [5] 0.003 | [6] -0.016 | [7] -0.024 | [8] -0.038 | [9] -0.153 | [10] -0.031

FAHD2B (UniProt Q6P2I3)
inactive: [1] -0.05 | [2] 0.011 | [3] 0.04 | [4] 0.108 | [5] 0.001 | [6] 0.012 | [7] -0.076 | [8] 0.069 | [9] 0.221 | [10] 0

FAM20B (UniProt O75063)
inactive: [1] 0.003 | [2] -0.019 | [3] 0.053 | [4] 0.003 | [5] -0.032 | [6] 0.08 | [7] 0.049 | [8] 0.012 | [9] -0.042 | [10] 0.016

EXOSC3 (UniProt Q9NQT5)
inactive: [1] 0.005 | [2] 0.004 | [3] 0.017 | [4] 0.008 | [5] -0.025 | [6] -0.067 | [7] -0.106 | [8] 0.066 | [9] -0.023 | [10] 0.008

FAM76A isoform 3 (UniProt Q8TAV0)
inactive: [1] 0.059 | [2] -0.005 | [3] -0.117 | [4] 0.03 | [5] -0.066 | [6] -0.015 | [7] -0.116 | [8] 0.047 | [9] 0.019 | [10] -0.051

ETFB (UniProt P38117)
inactive: [1] 0.018 | [2] -0.024 | [3] -0.009 | [4] 0.028 | [5] 0.017 | [6] -0.013 | [7] -0.099 | [8] 0.049 | [9] 0.001 | [10] -0.01

ERP44 (UniProt Q9BS26)
inactive: [1] 0.002 | [2] -0.012 | [3] 0.004 | [4] 0.015 | [5] 0.015 | [6] 0.02 | [7] -0.03 | [8] 0.069 | [9] 0.008 | [10] 0.018

FAM114A2 (UniProt Q9NRY5)
inactive: [1] 0.054 | [2] 0.049 | [3] 0.086 | [4] 0.131 | [5] -0.013 | [6] 0.014 | [7] 0.049 | [8] -0.039 | [9] 0.03 | [10] 0.033

ESYT1 isoform 2 (UniProt Q9BSJ8)
inactive: [1] 0.004 | [2] -0.009 | [3] 0.012 | [4] -0.05 | [5] -0.037 | [6] -0.027 | [7] -0.04 | [8] 0.035 | [9] 0.027 | [10] 0.061

ERMP1 (UniProt Q7Z2K6)
inactive: [1] 0.032 | [2] 0.029 | [3] 0.021 | [4] 0.01 | [5] 0.04 | [6] -0.02 | [7] -0.114 | [8] 0.082 | [9] 0.012 | [10] -0.02

EXOSC6 (UniProt Q5RKV6)
inactive: [1] -0.017 | [2] 0.036 | [3] -0.018 | [4] 0.007 | [5] 0.02 | [6] 0.01 | [7] -0.029 | [8] 0.043 | [9] 0.032 | [10] -0.032

FAM120A isoform 6 (UniProt Q9NZB2)
inactive: [1] 0.033 | [2] 0.009 | [3] -0.019 | [4] 0.013 | [5] -0.021 | [6] -0.022 | [7] -0.026 | [8] 0.018 | [9] 0.007 | [10] -0.009

FAM3C (UniProt Q92520)
inactive: [1] 0.086 | [2] -0.012 | [3] -0.017 | [4] 0.019 | [5] -0.001 | [6] -0.008 | [7] 0.008 | [8] -0.032 | [9] 0.017 | [10] -0.003

FAM114A1 (UniProt Q8IWE2)
inactive: [1] 0.049 | [2] 0.036 | [3] 0.034 | [4] 0.123 | [5] 0.018 | [6] -0.042 | [7] -0.075 | [8] 0.05 | [9] -0.063

ESYT2 (UniProt H7BXI1)
inactive: [1] -0.047 | [2] -0.044 | [3] 0.046 | [4] -0.065 | [5] -0.036 | [6] -0.009 | [7] 0.037 | [8] -0.068 | [9] 0.033 | [10] -0.003

FAM126B (UniProt Q8IXS8)
inactive: [1] 0.064 | [2] 0.027 | [3] -0.129 | [4] 0.017 | [5] -0.027 | [6] -0.26 | [7] -0.135 | [8] 0.187 | [9] 0.038

Quoted from the entries so far (5 entries):
FAM120A isoform 6 (UniProt Q9NZB2)
inactive: [1] 0.033 | [2] 0.009 | [3] -0.019 | [4] 0.013 | [5] -0.021 | [6] -0.022 | [7] -0.026 | [8] 0.018 | [9] 0.007 | [10] -0.009

FAM3C (UniProt Q92520)
inactive: [1] 0.086 | [2] -0.012 | [3] -0.017 | [4] 0.019 | [5] -0.001 | [6] -0.008 | [7] 0.008 | [8] -0.032 | [9] 0.017 | [10] -0.003

FAM114A1 (UniProt Q8IWE2)
inactive: [1] 0.049 | [2] 0.036 | [3] 0.034 | [4] 0.123 | [5] 0.018 | [6] -0.042 | [7] -0.075 | [8] 0.05 | [9] -0.063

ESYT2 (UniProt H7BXI1)
inactive: [1] -0.047 | [2] -0.044 | [3] 0.046 | [4] -0.065 | [5] -0.036 | [6] -0.009 | [7] 0.037 | [8] -0.068 | [9] 0.033 | [10] -0.003

FAM126B (UniProt Q8IXS8)
inactive: [1] 0.064 | [2] 0.027 | [3] -0.129 | [4] 0.017 | [5] -0.027 | [6] -0.26 | [7] -0.135 | [8] 0.187 | [9] 0.038

Continued.

FAF2 (UniProt Q96CS3)
inactive: [1] 0.01 | [2] 0.048 | [3] 0.046 | [4] 0.002 | [5] -0.068 | [6] -0.016 | [7] 0.045 | [8] -0.037 | [9] 0.004 | [10] -0.001

FAM107B isoform 2 (UniProt Q9H098)
inactive: [1] -0.043 | [2] 0.032 | [3] 0.01 | [4] -0.09 | [5] -0.006 | [6] -0.117 | [7] 0.161 | [8] 0.015 | [9] -0.053 | [10] -0.024
